“And” between values parts separate entries of the source, which are not always exact repeats. Equal values may be shown once.
Each compound was assayed on kidney cancer cells (HEK293) (assay: MTS in vitro cytotoxicity assay, HEK293). Details: EC50 against BHK21 divided by EC50 against HEK293.
Type: cell-based
Excerpt: The absorbance is directly proportional to cell viability.

Row | SMILES | SI (selectivity index)
1 | CC(=O)OC[C@H]1O[C@@H]([S-])[C@H](OC(C)=O)[C@@H](OC(C)=O)[C@@H]1OC(C)=O.CCP(CC)CC.[Au+] [Auranofin, reference compound] | ≤1
2 | Cc1ccc(C(C)C)cc1.F[B-](F)(F)F.[Cl-].[Ru+2].c1ccc(Cn2cc(-c3ccccn3)nn2)cc1 [Complex C1, [Chlorido(2-(1-benzyl-(3-κN)-1,2,3-triazol-4-yl)-(2′-κN)-pyridine)(η^6-p-cymene)ruthenium(II)] tetrafluoroborate] | <1
3 | Cc1ccc(C(C)C)cc1.[Cl-].[Ru+2].c1ccc(Cn2cc(-c3ccccn3)nn2)cc1.c1ccc([B-](c2ccccc2)(c2ccccc2)c2ccccc2)cc1 [Complex C2, [Chlorido(2-(1-benzyl-(3-κN)-1,2,3-triazol-4-yl)-(2′-κN)-pyridine)(η^6-p-cymene)ruthenium(II)] tetraphenylborate] | > 10 and 14
4 | Cc1ccc(C(C)C)cc1.F[B-](F)(F)F.[Cl-].[Os+2].c1ccc(Cn2cc(-c3ccccn3)nn2)cc1 [Complex C3, [Chlorido(2-(1-benzyl-(3-κN)-1,2,3-triazol-4-yl)-(2′-κN)-pyridine)(η^6-p-cymene)osmium(II)] tetrafluoroborate] | ≤1
5 | Cc1c(C)c(C)[c-](C)c1C.F[B-](F)(F)F.[Cl-].[Rh+3].c1ccc(Cn2cc(-c3ccccn3)nn2)cc1 [Complex C4, [Chlorido(2-(1-benzyl-(3-κN)-1,2,3-triazol-4-yl)-(2′-κN)-pyridine)(η^6-pentamethylcypentadiene)rhodium(III)] tetrafluoroborate] | ≤1
6 | Cc1c(C)c(C)[c-](C)c1C.F[B-](F)(F)F.[Cl-].[Ir+3].c1ccc(Cn2cc(-c3ccccn3)nn2)cc1 [Complex C5, [Chlorido(2-(1-benzyl-(3-κN)-1,2,3-triazol-4-yl)-(2′-κN)-pyridine)(η^6-pentamethylcypentadiene)iridium(III)] tetrafluoroborate] | <1
7 | Cc1ccc(C(C)C)cc1.[Cl-].[Ru+2].c1ccc(Cn2cc(-c3ccccn3)nn2)nc1.c1ccc([B-](c2ccccc2)(c2ccccc2)c2ccccc2)cc1 [Complex C7, [Chlorido(2-((4-(pyridine-2-yl)-(3-κN)-1,2,3-trizol-1-yl)methyl)-(2′-κN)-pyridine)(η^6-p-cymene)ruthenium(II)] tetraphenylborate] | 4
8 | Cc1ccc(C(C)C)cc1.F[B-](F)(F)F.[Cl-].[Os+2].c1ccc(Cn2cc(-c3ccccn3)nn2)nc1 [Complex C8, [Chlorido(2-((4-(pyridine-2-yl)-(3-κN)-1,2,3-trizol-1-yl)methyl)-(2′-κN)-pyridine)(η^6-p-cymene)osmium(II)] tetrafluoroborate] | ≤1
9 | Cc1c(C)c(C)[c-](C)c1C.F[B-](F)(F)F.[Cl-].[Ir+3].c1ccc(Cn2cc(-c3ccccn3)nn2)nc1 [Complex C11, [Chlorido(2-((4-(pyridine-2-yl)-(3-κN)-1,2,3-trizol-1-yl)methyl)-(2′-κN)-pyridine)(η^6-pentamethylcypentadiene)iridium(III)] tetrafluoroborate] | > 10

Reference: paper PMC9000499, “New Triazolyl N^N Bidentate Rh(III), Ir(III), Ru(II) and Os(II) Complexes: Synthesis and Characterization, Probing Possible Relations between Cytotoxicity with Transfer Hydrogenation Efficacy and Interaction with Model Biomolecules” (Molecules, 2022)
